Assay results taken from article PMC10238091.

Amino acid sequences for entries named in this document (tags omitted).
UniProt Q92616: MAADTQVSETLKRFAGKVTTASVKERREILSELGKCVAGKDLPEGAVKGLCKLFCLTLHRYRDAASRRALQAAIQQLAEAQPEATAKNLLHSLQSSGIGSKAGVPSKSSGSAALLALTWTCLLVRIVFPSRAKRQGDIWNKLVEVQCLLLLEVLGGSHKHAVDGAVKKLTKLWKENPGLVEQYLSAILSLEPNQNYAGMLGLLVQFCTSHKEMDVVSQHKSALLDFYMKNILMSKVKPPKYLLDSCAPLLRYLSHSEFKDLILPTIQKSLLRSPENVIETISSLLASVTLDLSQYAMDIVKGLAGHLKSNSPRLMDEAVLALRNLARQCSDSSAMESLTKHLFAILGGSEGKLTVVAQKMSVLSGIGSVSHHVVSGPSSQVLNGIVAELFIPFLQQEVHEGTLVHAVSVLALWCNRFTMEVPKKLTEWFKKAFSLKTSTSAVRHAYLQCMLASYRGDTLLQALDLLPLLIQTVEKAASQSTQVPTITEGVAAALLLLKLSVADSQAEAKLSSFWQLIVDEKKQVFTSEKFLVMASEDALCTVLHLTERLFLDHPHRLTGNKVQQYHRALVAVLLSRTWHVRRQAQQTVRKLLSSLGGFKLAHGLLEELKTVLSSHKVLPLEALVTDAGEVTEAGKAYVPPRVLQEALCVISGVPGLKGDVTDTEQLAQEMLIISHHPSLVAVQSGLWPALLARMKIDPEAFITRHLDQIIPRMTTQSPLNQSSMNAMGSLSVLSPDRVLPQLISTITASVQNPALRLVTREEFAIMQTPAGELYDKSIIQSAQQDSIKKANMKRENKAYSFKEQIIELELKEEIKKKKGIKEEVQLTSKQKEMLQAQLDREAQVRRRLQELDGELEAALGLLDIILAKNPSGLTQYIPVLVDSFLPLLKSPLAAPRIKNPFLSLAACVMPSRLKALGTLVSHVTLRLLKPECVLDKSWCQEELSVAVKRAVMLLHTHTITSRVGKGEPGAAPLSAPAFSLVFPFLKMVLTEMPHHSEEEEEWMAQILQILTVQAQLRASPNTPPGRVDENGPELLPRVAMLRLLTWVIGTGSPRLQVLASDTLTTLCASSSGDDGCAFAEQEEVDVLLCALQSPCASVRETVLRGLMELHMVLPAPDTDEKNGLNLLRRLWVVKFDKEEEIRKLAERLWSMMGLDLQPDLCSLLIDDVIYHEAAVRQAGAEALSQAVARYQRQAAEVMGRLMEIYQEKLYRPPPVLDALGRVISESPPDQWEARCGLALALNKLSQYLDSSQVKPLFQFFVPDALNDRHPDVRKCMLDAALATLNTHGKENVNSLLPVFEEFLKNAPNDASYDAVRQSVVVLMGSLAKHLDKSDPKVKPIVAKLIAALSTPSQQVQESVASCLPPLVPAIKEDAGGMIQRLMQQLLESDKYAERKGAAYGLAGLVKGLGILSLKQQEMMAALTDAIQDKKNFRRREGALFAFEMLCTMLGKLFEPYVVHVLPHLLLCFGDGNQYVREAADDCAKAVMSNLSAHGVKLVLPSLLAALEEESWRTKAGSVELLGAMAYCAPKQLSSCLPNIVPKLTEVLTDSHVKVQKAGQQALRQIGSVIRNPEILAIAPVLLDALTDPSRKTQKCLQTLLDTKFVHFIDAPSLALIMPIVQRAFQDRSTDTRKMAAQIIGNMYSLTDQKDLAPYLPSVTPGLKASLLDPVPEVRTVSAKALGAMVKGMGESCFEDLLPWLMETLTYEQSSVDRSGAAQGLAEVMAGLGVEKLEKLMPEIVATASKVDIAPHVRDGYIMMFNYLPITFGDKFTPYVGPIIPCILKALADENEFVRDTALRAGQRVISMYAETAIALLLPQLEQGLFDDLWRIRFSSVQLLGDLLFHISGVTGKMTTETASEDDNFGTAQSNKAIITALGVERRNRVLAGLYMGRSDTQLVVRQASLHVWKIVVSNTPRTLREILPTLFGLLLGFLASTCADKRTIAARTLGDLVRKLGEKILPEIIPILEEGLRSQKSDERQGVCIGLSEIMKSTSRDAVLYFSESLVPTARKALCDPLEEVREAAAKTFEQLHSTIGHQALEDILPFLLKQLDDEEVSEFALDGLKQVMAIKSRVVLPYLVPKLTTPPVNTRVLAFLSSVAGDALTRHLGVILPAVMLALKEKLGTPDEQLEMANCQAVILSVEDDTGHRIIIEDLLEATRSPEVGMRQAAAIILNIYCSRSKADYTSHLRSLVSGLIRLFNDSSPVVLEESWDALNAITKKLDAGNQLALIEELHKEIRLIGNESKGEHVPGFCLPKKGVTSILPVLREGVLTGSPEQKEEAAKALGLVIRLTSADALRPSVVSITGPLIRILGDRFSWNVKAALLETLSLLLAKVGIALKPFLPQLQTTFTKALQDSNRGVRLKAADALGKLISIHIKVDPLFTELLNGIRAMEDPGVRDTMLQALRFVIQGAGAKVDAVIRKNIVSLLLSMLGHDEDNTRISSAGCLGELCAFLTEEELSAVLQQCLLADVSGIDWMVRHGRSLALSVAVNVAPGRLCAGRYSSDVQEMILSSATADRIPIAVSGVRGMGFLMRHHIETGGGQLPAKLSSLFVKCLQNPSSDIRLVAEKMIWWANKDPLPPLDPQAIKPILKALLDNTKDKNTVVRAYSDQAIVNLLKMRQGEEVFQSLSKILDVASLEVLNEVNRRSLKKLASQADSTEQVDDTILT
UniProt Q92833: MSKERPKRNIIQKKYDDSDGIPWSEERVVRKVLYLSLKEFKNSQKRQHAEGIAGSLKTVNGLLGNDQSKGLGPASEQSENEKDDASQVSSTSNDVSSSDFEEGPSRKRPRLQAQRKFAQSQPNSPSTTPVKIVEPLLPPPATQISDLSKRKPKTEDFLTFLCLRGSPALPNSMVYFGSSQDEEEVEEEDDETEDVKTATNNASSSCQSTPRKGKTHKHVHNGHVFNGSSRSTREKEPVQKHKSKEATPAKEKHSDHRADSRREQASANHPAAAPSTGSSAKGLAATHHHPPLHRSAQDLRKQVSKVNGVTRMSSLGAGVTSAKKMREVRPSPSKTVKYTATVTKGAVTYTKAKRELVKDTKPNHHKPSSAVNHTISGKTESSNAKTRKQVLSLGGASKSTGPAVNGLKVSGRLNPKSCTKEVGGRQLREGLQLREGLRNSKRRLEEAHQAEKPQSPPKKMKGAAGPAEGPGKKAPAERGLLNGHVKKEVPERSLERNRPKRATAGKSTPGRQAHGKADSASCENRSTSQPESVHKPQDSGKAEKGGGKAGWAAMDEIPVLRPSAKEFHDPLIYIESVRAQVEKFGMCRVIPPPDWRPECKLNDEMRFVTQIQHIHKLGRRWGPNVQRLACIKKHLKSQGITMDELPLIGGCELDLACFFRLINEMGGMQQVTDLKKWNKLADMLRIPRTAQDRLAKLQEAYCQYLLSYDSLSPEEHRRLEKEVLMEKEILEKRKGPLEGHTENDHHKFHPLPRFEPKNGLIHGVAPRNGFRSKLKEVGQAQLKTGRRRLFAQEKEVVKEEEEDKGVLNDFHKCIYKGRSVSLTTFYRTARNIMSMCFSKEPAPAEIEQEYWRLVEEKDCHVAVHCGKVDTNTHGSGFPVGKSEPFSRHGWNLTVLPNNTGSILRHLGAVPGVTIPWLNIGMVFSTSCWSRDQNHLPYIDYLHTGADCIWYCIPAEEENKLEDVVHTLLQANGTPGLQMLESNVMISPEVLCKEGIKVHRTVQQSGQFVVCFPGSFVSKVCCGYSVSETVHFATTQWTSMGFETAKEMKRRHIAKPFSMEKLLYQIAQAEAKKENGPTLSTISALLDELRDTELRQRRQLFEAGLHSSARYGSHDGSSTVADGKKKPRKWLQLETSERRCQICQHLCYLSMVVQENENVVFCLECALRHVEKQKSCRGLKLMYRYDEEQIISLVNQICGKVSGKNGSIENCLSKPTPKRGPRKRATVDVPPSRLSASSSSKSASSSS
UniProt Q9UQE7: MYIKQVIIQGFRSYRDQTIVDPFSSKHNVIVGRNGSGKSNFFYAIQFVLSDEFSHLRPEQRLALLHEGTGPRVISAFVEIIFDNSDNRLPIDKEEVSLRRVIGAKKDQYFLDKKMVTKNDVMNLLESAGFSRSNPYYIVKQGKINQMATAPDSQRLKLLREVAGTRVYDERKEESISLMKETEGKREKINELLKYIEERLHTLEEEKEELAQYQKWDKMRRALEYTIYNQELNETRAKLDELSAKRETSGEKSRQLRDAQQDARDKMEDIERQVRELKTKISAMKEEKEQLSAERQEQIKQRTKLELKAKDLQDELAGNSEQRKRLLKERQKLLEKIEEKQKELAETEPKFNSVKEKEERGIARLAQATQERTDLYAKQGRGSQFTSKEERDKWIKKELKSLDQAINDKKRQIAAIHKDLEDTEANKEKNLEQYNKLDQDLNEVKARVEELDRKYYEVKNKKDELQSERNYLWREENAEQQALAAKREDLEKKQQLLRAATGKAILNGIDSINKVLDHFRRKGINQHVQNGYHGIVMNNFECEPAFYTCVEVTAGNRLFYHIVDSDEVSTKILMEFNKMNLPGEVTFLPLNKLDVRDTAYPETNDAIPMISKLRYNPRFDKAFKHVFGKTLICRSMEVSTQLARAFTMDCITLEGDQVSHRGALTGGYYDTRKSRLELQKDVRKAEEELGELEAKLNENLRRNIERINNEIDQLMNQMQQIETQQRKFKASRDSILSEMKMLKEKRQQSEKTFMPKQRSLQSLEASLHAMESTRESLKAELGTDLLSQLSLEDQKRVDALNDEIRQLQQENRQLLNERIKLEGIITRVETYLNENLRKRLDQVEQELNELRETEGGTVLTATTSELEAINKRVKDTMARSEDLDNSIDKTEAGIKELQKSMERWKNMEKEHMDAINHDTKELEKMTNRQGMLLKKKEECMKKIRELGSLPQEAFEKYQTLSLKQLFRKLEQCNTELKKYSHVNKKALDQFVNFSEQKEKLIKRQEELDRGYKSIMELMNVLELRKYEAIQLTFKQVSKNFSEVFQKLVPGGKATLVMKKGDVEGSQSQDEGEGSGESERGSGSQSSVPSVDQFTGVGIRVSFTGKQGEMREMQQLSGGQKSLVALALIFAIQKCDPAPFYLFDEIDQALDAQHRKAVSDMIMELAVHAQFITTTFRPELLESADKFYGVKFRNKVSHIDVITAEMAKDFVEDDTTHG
UniProt Q07955: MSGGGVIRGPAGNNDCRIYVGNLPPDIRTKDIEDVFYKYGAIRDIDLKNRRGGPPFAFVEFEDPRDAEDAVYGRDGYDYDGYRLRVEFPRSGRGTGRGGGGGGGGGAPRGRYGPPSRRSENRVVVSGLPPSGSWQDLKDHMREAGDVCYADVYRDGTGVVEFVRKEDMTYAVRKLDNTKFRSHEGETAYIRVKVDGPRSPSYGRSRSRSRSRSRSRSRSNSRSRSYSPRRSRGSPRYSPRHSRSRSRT
UniProt O60506: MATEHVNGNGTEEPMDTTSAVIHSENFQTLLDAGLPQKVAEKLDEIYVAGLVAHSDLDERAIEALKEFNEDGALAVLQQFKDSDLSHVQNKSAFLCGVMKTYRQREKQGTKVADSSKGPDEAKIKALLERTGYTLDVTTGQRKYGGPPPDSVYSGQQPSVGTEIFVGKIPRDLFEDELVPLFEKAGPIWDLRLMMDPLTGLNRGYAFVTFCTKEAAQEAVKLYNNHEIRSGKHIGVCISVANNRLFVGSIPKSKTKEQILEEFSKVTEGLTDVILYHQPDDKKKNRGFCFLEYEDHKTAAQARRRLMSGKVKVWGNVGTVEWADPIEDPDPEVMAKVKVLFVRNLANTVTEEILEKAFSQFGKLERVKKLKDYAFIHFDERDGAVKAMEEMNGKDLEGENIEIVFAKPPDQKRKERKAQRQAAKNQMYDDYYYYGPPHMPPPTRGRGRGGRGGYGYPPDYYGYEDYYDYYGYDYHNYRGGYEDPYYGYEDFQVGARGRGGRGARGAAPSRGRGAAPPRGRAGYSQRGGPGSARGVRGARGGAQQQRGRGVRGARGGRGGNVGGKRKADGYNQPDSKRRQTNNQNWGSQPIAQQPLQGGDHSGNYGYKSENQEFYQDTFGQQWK

T1: SA1 (Stromalin Antigen 1, STAG1) (human (endogenous in HCT116 and HeLa)) (UniProt Q8WVM7)
T1 sequence: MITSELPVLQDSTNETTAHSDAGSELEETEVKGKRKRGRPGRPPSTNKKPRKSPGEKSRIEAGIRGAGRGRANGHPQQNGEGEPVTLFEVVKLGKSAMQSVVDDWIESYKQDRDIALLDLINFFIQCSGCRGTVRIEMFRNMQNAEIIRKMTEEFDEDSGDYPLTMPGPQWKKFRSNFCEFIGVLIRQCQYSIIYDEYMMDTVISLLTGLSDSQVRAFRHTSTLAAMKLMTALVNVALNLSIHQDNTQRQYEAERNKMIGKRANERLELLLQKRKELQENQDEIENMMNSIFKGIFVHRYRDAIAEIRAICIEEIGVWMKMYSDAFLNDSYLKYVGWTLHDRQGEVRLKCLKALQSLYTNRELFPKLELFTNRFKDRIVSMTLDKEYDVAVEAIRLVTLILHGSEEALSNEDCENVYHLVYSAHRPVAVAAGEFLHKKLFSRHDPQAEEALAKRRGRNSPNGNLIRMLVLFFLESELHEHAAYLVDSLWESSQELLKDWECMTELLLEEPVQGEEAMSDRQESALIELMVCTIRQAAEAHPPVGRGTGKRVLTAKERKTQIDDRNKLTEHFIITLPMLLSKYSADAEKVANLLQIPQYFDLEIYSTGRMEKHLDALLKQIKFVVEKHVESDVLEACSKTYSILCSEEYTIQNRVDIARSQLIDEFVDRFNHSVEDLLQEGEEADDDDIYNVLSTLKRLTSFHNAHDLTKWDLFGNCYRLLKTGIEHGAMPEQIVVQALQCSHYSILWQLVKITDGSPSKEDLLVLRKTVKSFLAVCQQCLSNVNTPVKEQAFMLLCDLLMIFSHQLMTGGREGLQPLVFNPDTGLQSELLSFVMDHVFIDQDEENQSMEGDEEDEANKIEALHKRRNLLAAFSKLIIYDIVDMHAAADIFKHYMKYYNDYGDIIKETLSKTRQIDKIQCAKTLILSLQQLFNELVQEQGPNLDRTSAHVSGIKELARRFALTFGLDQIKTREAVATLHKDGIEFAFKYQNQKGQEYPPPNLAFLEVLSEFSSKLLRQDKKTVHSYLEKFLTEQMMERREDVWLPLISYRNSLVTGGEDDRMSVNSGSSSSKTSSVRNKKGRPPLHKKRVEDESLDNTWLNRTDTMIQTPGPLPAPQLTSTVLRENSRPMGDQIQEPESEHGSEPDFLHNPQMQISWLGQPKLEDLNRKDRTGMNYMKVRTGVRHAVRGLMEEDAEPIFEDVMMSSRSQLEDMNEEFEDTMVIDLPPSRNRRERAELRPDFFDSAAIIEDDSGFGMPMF

B1: SMC1A (protein, UniProt Q14683 1-1233)
chain: MGFLKLIEIENFKSYKGRQIIGPFQRFTAIIGPNGSGKSNLMDAISFVLGEKTSNLRVKTLRDLIHGAPVGKPAANRAFVSMVYSEEGAEDRTFARVIVGGSSEYKINNKVVQLHEYSEELEKLGILIKARNFLVFQGAVESIAMKNPKERTALFEEISRSGELAQEYDKRKKEMVKAEEDTQFNYHRKKNIAAERKEAKQEKEEADRYQRLKDEVVRAQVQLQLFKLYHNEVEIEKLNKELASKNKEIEKDKKRMDKVEDELKEKKKELGKMMREQQQIEKEIKEKDSELNQKRPQYIKAKENTSHKIKKLEAAKKSLQNAQKHYKKRKGDMDELEKEMLSVEKARQEFEERMEEESQSQGRDLTLEENQVKKYHRLKEEASKRAATLAQELEKFNRDQKADQDRLDLEERKKVETEAKIKQKLREIEENQKRIEKLEEYITTSKQSLEEQKKLEGELTEEVEMAKRRIDEINKELNQVMEQLGDARIDRQESSRQQRKAEIMESIKRLYPGSVYGRLIDLCQPTQKKYQIAVTKVLGKNMDAIIVDSEKTGRDCIQYIKEQRGEPETFLPLDYLEVKPTDEKLRELKGAKLVIDVIRYEPPHIKKALQYACGNALVCDNVEDARRIAFGGHQRHKTVALDGTLFQKSGVISGGASDLKAKARRWDEKAVDKLKEKKERLTEELKEQMKAKRKEAELRQVQSQAHGLQMRLKYSQSDLEQTKTRHLALNLQEKSKLESELANFGPRINDIKRIIQSREREMKDLKEKMNQVEDEVFEEFCREIGVRNIREFEEEKVKRQNEIAKKRLEFENQKTRLGIQLDFEKNQLKEDQDKVHMWEQTVKKDENEIEKLKKEEQRHMKIIDETMAQLQDLKNQHLAKKSEVNDKNHEMEEIRKKLGGANKEMTHLQKEVTAIETKLEQKRSDRHNLLQACKMQDIKLPLSKGTMDDISQEEGSSQGEDSVSGSQRISSIYAREALIEIDYGDLCEDLKDAQAEEEIKQEMNTLQQKLNEQQSVLQRIAAPNMKAMEKLESVRDKFQETSDEFEAARKRAKKAKQAFEQIKKERFDRFNACFESVATNIDEIYKALSRNSSAQAFLGPENPEEPYLDGINYNCVAPGKRFRPMDNLSGGEKTVAALALLFAIHSYKPAPFFVLDEIDAALDNTNIGKVANYIKEQSTCNFQAIVISLKEEFYTKAESLIGVYPEQGDCVISKVLTFDLTKYPDANPNPNEQ
B2: PDS5B (protein, UniProt Q9NTI5 1-1447)
chain: MAHSKTRTNDGKITYPPGVKEISDKISKEEMVRRLKMVVKTFMDMDQDSEEEKELYLNLALHLASDFFLKHPDKDVRLLVACCLADIFRIYAPEAPYTSPDKLKDIFMFITRQLKGLEDTKSPQFNRYFYLLENIAWVKSYNICFELEDSNEIFTQLYRTLFSVINNGHNQKVHMHMVDLMSSIICEGDTVSQELLDTVLVNLVPAHKNLNKQAYDLAKALLKRTAQAIEPYITNFFNQVLMLGKTSISDLSEHVFDLILELYNIDSHLLLSVLPQLEFKLKSNDNEERLQVVKLLAKMFGAKDSELASQNKPLWQCYLGRFNDIHVPIRLECVKFASHCLMNHPDLAKDLTEYLKVRSHDPEEAIRHDVIVSIVTAAKKDILLVNDHLLNFVRERTLDKRWRVRKEAMMGLAQIYKKYALQSAAGKDAAKQIAWIKDKLLHIYYQNSIDDRLLVERIFAQYMVPHNLETTERMKCLYYLYATLDLNAVKALNEMWKCQNLLRHQVKDLLDLIKQPKTDASVKAIFSKVMVITRNLPDPGKAQDFMKKFTQVLEDDEKIRKQLEVLVSPTCSCKQAEGCVREITKKLGNPKQPTNPFLEMIKFLLERIAPVHIDTESISALIKQVNKSIDGTADDEDEGVPTDQAIRAGLELLKVLSFTHPISFHSAETFESLLACLKMDDEKVAEAALQIFKNTGSKIEEDFPHIRSALLPVLHHKSKKGPPRQAKYAIHCIHAIFSSKETQFAQIFEPLHKSLDPSNLEHLITPLVTIGHIALLAPDQFAAPLKSLVATFIVKDLLMNDRLPGKKTTKLWVPDEEVSPETMVKIQAIKMMVRWLLGMKNNHSKSGTSTLRLLTTILHSDGDLTEQGKISKPDMSRLRLAAGSAIVKLAQEPCYHEIITLEQYQLCALAINDECYQVRQVFAQKLHKGLSRLRLPLEYMAICALCAKDPVKERRAHARQCLVKNINVRREYLKQHAAVSEKLLSLLPEYVVPYTIHLLAHDPDYVKVQDIEQLKDVKECLWFVLEILMAKNENNSHAFIRKMVENIKQTKDAQGPDDAKMNEKLYTVCDVAMNIIMSKSTTYSLESPKDPVLPARFFTQPDKNFSNTKNYLPPEMKSFFTPGKPKTTNVLGAVNKPLSSAGKQSQTKSSRMETVSNASSSSNPSSPGRIKGRLDSSEMDHSENEDYTMSSPLPGKKSDKRDDSDLVRSELEKPRGRKKTPVTEQEEKLGMDDLTKLVQEQKPKGSQRSRKRGHTASESDEQQWPEEKRLKEDILENEDEQNSPPKKGKRGRPPKPLGGGTPKEEPTMKTSKKGSKKKSGPPAPEEEEEEERQSGNTEQKSKSKQHRVSRRAQQRAESPESSAIESTQSTPQKGRGRPSKTPSPSQPKKNVRVGRSKQAATKENDSSEEVDVFQGSSPVDDIPQEETEEEEVSTVNVRRRSAKRERR
B3: SMARCAL1 (protein, UniProt Q9NZC9 1-954)
chain: MSLPLTEEQRKKIEENRQKALARRAEKLLAEQHQRTSSGTSIAGNPFQAKQGPSQNFPRESCKPVSHGVIFKQQNLSSSSNADQRPHDSHSFQAKGIWKKPEEMPTACPGHSPRSQMALTGISPPLAQSPPEVPKQQLLSYELGQGHAQASPEIRFTPFANPTHKPLAKPKSSQETPAHSSGQPPRDAKLEAKTAKASPSGQNISYIHSSSESVTPRTEGRLQQKSGSSVQKGVNSQKGKCVRNGDRFQVLIGYNAELIAVFKTLPSKNYDPDTKTWNFSMNDYSALMKAAQSLPTVNLQPLEWAYGSSESPSTSSEGQAGLPSAPSLSFVKGRCMLISRAYFEADISYSQDLIALFKQMDSRRYDVKTRKWSFLLEEHSKLIAKVRCLPQVQLDPLPTTLTLAFASQLKKTSLSLTPDVPEADLSEVDPKLVSNLMPFQRAGVNFAIAKGGRLLLADDMGLGKTIQAICIAAFYRKEWPLLVVVPSSVRFTWEQAFLRWLPSLSPDCINVVVTGKDRLTAGLINIVSFDLLSKLEKQLKTPFKVVIIDESHFLKNSRTARCRAAMPVLKVAKRVILLSGTPAMSRPAELYTQIIAVKPTFFPQFHAFGLRYCDAKRMPWGWDYSGSSNLGELKLLLEEAVMLRRLKSDVLSQLPAKQRKIVVIAPGRINARTRAALDAAAKEMTTKDKTKQQQKDALILFFNRTAEAKIPSVIEYILDLLESGREKFLVFAHHKVVLDAITQELERKHVQHIRIDGSTSSAEREDLCQQFQLSERHAVAVLSITAANMGLTFSSADLVVFAELFWNPGVLIQAEDRVHRIGQTSSVGIHYLVAKGTADDYLWPLIQEKIKVLAEAGLSETNFSEMTESTDYLYKDPKQQKIYDLFQKSFEKEGSDMELLEAAESFDPGSASGTSGSSSQNMGDTLDESSLTASPQKKRRFEFFDNWDSFTSPL

What follows are molecules tested against T1, SA1 (Stromalin Antigen 1, STAG1) (human (endogenous in HCT116 and HeLa)) (assay: affinity purification with mass spectrometry; endogenous SA1 IP (15 μg antibody, 2 mg chromatin extract) from RAD21mAC cells untreated or IAA 4 h, with IgG and siSA1 controls; LC-MS/MS, three biological replicates).

binding, binds:
GCN1L1 (from UniProt Q92616 1-2671), JARID2 (from UniProt Q92833 1-1246), SMC3 (from UniProt Q9UQE7 1-1217), SON (from UniProt P18583 1-2426), SRSF1 (from UniProt Q07955 1-248), SYNCRIP (from UniProt O60506 1-623), B1, B2, B3

Results are given in words; binding and its absence hold for the method and conditions named. In cells and extracts the contact can be indirect. A yes stands for co-enrichment or nearness to the bait. Other partners may have been found. Sequences can lack the tags named with a protein.
